# Hit rate of the full screen: of about 340,000 compounds, about 170 (0.05%) were called active. The inconclusive results got no clear call from the source; some entries with a clear call stand among them for comparison. Calls follow the shape of the dose curve; as a rule, active = well fitted inhibition curve with a large enough effect in the signal ratio, with a control signal flat (not every such curve was filed as active); inconclusive = small, poorly fitted or top-dose-only effect, or effect the other way, or a change in a side signal; inactive = flat fitted curve, though single readings scatter; the % refers to the signal ratio. Where the call is inconclusive, the potency comes from a doubtful curve fit.
# Test: qHTS Assay to Find Inhibitors of Chronic Active B-Cell Receptor Signaling;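 as to activity change, negative = inhibition: plate controls were basal doxycycline-induced cells for no effect and cells given 10 µM MG132 for full effect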
# Conditions: ABC-DLBCL IkBa-CBG/CBR reporter, luminescence ratio (green luciferase fused to IkBa over red control in TMD8 lymphoma cells), 4 h; activity change, negative = inhibition: at 46.1 µM (top of the series)
# Outline: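 Cell line TMD8 (human ABC DLBCL), stably expressing tet-inducible CBG68-IkBa fusion and CBR; IMDM/0.5% FBS; cpd up to 46 uM; dox induction, 4 h, 37C/5% CO2; dual luminescence; green/red ratio; MG132 control.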
# Potency is read from the fitted curve at half-maximal effect.
Compound,"activity change, negative = inhibition",Potency
Cc1ccc(C(NC(=O)N2CCCCC2)=C(Cl)Cl)cc1F,inconclusive: -0.295%,
O=C(O)C1Cc2c([nH]c3ccccc23)C(c2ccc3c(c2)OCO3)N1 (configuration not stated),inconclusive: -5.19%,
O=C(CCCCCN1C(=O)CCC1=O)Nc1ccc(Cl)c(C(F)(F)F)c1,,"inconclusive: 0.13 µM [falling, full curve, poor fit]"
O=C(Cn1c(=O)oc2ccccc21)Nc1ccc2c(c1)OCCO2,inactive: 2.82%,
Cn1cc(/C=N/n2cnc3sc4c(c3c2=O)CCCC4)c2ccccc21,,"inconclusive: 0.1 µM [falling, full curve, poor fit]"
CCCc1oc2ccc(NS(=O)(=O)c3ccc(OC)cc3)cc2c1C(=O)OCC,,"inconclusive: 22.4 µM [falling, single point]"
Cn1nnc(NC(=S)NC(=O)c2cccs2)n1,inactive: -8.58%,
COCCNC(=O)CCc1c(C)nc2nc(-c3cc(OC)cc(OC)c3)nn2c1C,,"inconclusive: 11.2 µM [falling, partial curve]"
Cc1ccc(-c2[nH]c3ccccc3c2C(C[N+](=O)[O-])c2ccco2)cc1 (configuration not stated),,"inconclusive: 0.92 µM [rising, full curve]"
Cc1ccc(C(=O)Nc2ccccc2N2CCCCC2)o1,inactive: 0.111%,
COC(=O)c1sc(NC(=O)COc2ccccc2)nc1C,,"inconclusive: 25.9 µM [rising, single point]"
CN1C2C=C3C(C#N)=C(N)C(C#N)(C#N)[C@H](c4c(F)cccc4F)[C@H]3C1CC2 (some centres not stated),inactive: -7.18%,
O=C(NNc1ncnc2c1cnn2-c1ccccc1)c1ccccc1,,"inconclusive: 1.26 µM [rising, full curve, poor fit]"
Clc1ccc(-c2n[nH]c3c2CCCC3)cc1,inconclusive: 13.5%,
Cc1ccc(OCCOCCn2ccnc2)c(Br)c1,inconclusive: 14.7%,
Cc1cc(C)nc(/N=C(\N)Nc2ccccc2-c2ccccc2)n1,inconclusive: -6.3%,
CCN1CCN(c2ccc(S(=O)(=O)N3CCCCC3)cc2N)CC1,inactive: 0.968%,
O=C(Nc1nccs1)c1ccc(N2C(=O)C3CCCCC3C2=O)cc1 (configuration not stated),inconclusive: 11.9%,
Cc1ncn2cc(-c3ccc(Cl)cc3Cl)[nH]c(=O)c12,inconclusive: 22.9%,
CC(C)c1ccc(C(=O)OC2CCOC2=O)cc1 (configuration not stated),inconclusive: -10%,
Cc1c(C)n(C)c2ccc(C(=O)NCCN3CCOCC3)cc12,inconclusive: 12.9%,

# At a glance, part of the list above:
Compound,"activity change, negative = inhibition",Potency
Cc1ccc(OCCOCCn2ccnc2)c(Br)c1,inconclusive: 14.7%,
Cc1cc(C)nc(/N=C(\N)Nc2ccccc2-c2ccccc2)n1,inconclusive: -6.3%,
CCN1CCN(c2ccc(S(=O)(=O)N3CCCCC3)cc2N)CC1,inactive: 0.968%,
O=C(Nc1nccs1)c1ccc(N2C(=O)C3CCCCC3C2=O)cc1 (configuration not stated),inconclusive: 11.9%,

# Molecules shown so far that contain an aryl methoxy group (two):
Compound,"activity change, negative = inhibition",Potency
CCCc1oc2ccc(NS(=O)(=O)c3ccc(OC)cc3)cc2c1C(=O)OCC,,"inconclusive: 22.4 µM [falling, single point]"
COCCNC(=O)CCc1c(C)nc2nc(-c3cc(OC)cc(OC)c3)nn2c1C,,"inconclusive: 11.2 µM [falling, partial curve]"

# Additional structures

Compound,"activity change, negative = inhibition",Potency
O=C(c1ccccc1)C1CN(c2ccccc2)CC1c1ccc(Cl)cc1 (configuration not stated),inactive: 5.41%,
CCc1ccc(/C=C2\Oc3c(ccc(O)c3CN3CCN(CCO)CC3)C2=O)cc1,inconclusive: -15.6%,
COc1cccc(/C=C/C(=O)Nc2ccc(OC)nc2)c1,inconclusive: -7.24%,
CC1CCc2c(nc3ncnn3c2NCCN(C)C)C1 (configuration not stated),inconclusive: 10.4%,
Cc1ccc(/C=N/NC(=O)c2ccc3ccccc3c2)s1,,"inconclusive: 20 µM [falling, single point]"
O=[N+]([O-])c1ccc(-c2cc(-c3ccncc3)nc3ccc4ccccc4c23)cc1,inconclusive: 0.267%,
O=C(CCCC(=O)N1CCN(c2ccccc2F)CC1)c1ccccc1,inconclusive: 4.9%,
COc1cccc(OC)c1C(=O)Nn1c(-c2cccs2)nc2ccccc2c1=O,inconclusive: 2.57%,
O=C1CCCc2c1cc(C(=O)NCc1ccco1)c(=O)n2-c1ccc(Cl)cc1,inconclusive: -14.1%,
CSc1ccc(C#N)cc1NC(=O)c1ccc(Cl)cc1,inconclusive: 12.6%,
C=CCn1c(=O)c2c3c(sc2n2c(Nc4ccccc4)nnc12)CCCC3,,"inconclusive: 6.51 µM [rising, partial curve]"
Cc1c(OCC(=O)NCCCN2CCOCC2)ccc2c1oc(=O)c1ccccc12,inconclusive: 6.34%,
COc1ccc(S(=O)(=O)n2nc(OC(=O)c3c(-c4ccccc4Cl)noc3C)cc2N)cc1,,"inconclusive: 7.08 µM [falling, partial curve]"
COc1ccccc1NC1=C(NC(C)=O)C(=O)c2ccccc2C1=O,inconclusive: 6.5%,
COc1ccc(-c2csc3nc(-c4cccnc4)nc(Cl)c23)cc1OC,,"inconclusive: 16.4 µM [falling, single point]"
Cc1ccc(C(=O)Nc2cc3c(cc2Cl)OCCCO3)cc1,inconclusive: 13.9%,
O=C(CSc1nc(N2CCOCC2)nc(N2CCOCC2)n1)Nc1ccc([N+](=O)[O-])cc1,,"inconclusive: 6.31 µM [falling, single point]"
Cc1ccc(-n2c(=O)c3sccc3n(Cc3cc(=O)n4ccccc4n3)c2=O)cc1,inactive: 4.1%,
O=C(Nc1ccccn1)C1COc2ccccc2O1 (configuration not stated),,"inconclusive: 29.1 µM [falling, single point]"
O=C(NNC(=O)c1ccc2ccccc2c1O)c1ccccc1Cl,,"inconclusive: 3.26 µM [falling, single point]"
O=C(O)c1ccc(Cn2nnc3sc4c(c3c2=O)CCCC4)cc1,inconclusive: -17.8%,

Compound,"activity change, negative = inhibition",Potency
Cc1cc(C)n2nc(C(=O)N/N=C/c3ccco3)nc2n1,inconclusive: -1.38%,
CC1C/C(=N\NC(=O)c2ccc([N+](=O)[O-])cc2)CC(C)(C)C1 (configuration not stated),inconclusive: -1.2%,
O=C(Nc1ccc(Cl)cn1)c1ccc(Oc2ccccc2)cc1,inconclusive: 4.29%,
CNC(=O)N(O)C1N(/N=C/c2cccnc2)C(=S)SC1(C)C (configuration not stated),inconclusive: 13.4%,
O=C(CN1CCN(CC(=O)Nc2ccccc2Cl)CC1)NCC1(N2CCCCC2)CCCCC1,inactive: -5.06%,
C/C(=N\Nc1ncc(Cl)cc1Cl)c1ccccn1,,"inconclusive: 35.5 µM [falling, single point]"
COc1ccc(-c2[nH]ncc2/C=N\NC(=O)c2ccc(C(C)(C)C)cc2)cc1OC,inactive: 3.74%,
COc1ccc(C(=O)Nc2cc(C(=O)NCCc3ccccc3)ccc2Cl)cc1,inconclusive: 11.8%,
O=C(CSc1ncc(C(F)(F)F)cc1Cl)NCC1CCCO1 (configuration not stated),inconclusive: 1.66%,
Cc1nc(NC(=O)c2ccc(Cl)cc2)sc1-c1csc(Nc2cccc(F)c2)n1,,"inconclusive: 15.8 µM [falling, partial curve, poor fit]"
C/C(CCC12CC3CC(CC(C3)C1)C2)=N\NC(N)=S,,"inconclusive: 29.1 µM [falling, single point]"
COC(=O)c1cc(-c2cccc([N+](=O)[O-])c2)c2c(=O)[nH]c(=O)n(C)c2n1,inconclusive: -1.67%,
CN(C)CCCn1cnc2c(c1=N)C(c1ccccc1)c1ccc3ccccc3c1O2 (configuration not stated),,"inconclusive: 12.6 µM [falling, single point]"
Cc1cccc(CSCCNC(=O)CN2C(=O)c3ccccc3S2(=O)=O)c1,inconclusive: 6.16%,
Cc1cc(SCC(=O)NCc2ccccc2)nc(=O)[nH]1,inactive: 0.949%,
CCn1c(CNc2ccc(F)cc2)nnc1SCC(=O)Nc1ccccc1OC,,"inconclusive: 18.4 µM [falling, single point]"
Cc1cc(C(=O)CSc2nc3ccccc3c(=O)n2C)c(C)n1CC1CCCO1 (configuration not stated),inconclusive: 2.38%,
Cc1cc(NC(=O)COC(=O)c2oc3c(ccc4ccccc43)c2C)no1,,"inconclusive: 18.4 µM [rising, partial curve, poor fit]"
CN(C)S(=O)(=O)c1ccc(C(=O)NCc2ccco2)cc1,inconclusive: 0.628%,
CC1=CN2C(=N)/C(=C/c3ccco3)C(=O)N=C2S1,inconclusive: -13.7%,
CCOC(=O)C1=C(c2ccc(OC)cc2)C(=O)c2ccccc2C1=O,inconclusive: -12.3%,

Compound,"activity change, negative = inhibition",Potency
CSc1ccccc1NC(=O)Nc1cccc2ccccc12,inconclusive: 1.51%,
COc1ccccc1CNc1ncnc2nc[nH]c12,,"inconclusive: 20.6 µM [falling, partial curve, poor fit]"
C#CCOc1ccc(Cl)cc1/C=N/O,inconclusive: -0.0258%,
CCCCN(C)c1ncnc2c1cnn2-c1cccc(Cl)c1,inconclusive: 10.3%,
CCS(=O)(=O)c1ccc(O)c(NC(=O)Nc2cccc3ccccc23)c1,inconclusive: -15.4%,
O=C(Nc1cccc(F)c1)N1C2CCC1CC(O)(c1cccnc1)C2 (configuration not stated),inconclusive: 10.2%,
O=C(NC1(C(F)(F)F)Oc2ccccc2O1)N1CCCC1,,"inconclusive: 10 µM [falling, partial curve]"
Clc1cccc(Cl)c1CSc1nnc([C@@H]2CCCN2)o1,inconclusive: 8.97%,
NC(=O)Cc1nc(-c2ccc([N+](=O)[O-])cc2)cs1,inactive: 0.928%,
c1csc(CNc2nc(-c3cccs3)nc3ccccc23)c1,,"inconclusive: 0.501 µM [rising, single point]"
CCOC(=O)c1cc(-c2ccc3c(c2)OCCO3)nc2c1c(C)nn2CCC#N,inconclusive: -22.3%,
CCN(CC)CCNc1nc(-c2ccc(OC)cc2)c(-c2ccc(OC)cc2)s1,inactive: -18.1%,
CC(C)(C)c1cc(NCCCn2ccnc2)n2ncc(-c3ccccc3)c2n1,inactive: 22.9%,
O=C1CN(C(=O)COC(=O)/C=C/c2ccco2)c2ccccc2N1,inconclusive: -3.11%,
COc1cccc(-c2nn(-c3ccccc3)cc2/C=C\C(=O)c2cccs2)c1,inconclusive: -13%,
CCc1ccc2[nH]c3nc(SCC(=O)NNC(=O)c4ccc(C(C)(C)C)cc4)nnc3c2c1,inconclusive: 7.54%,
COc1ccc(C(=O)O/N=C(\N)c2ccc(OC)c(OC)c2)c(OC)c1,inconclusive: -19.5%,
O=C(c1csc2ccccc12)N1CCN(c2ccc(Cl)c(Cl)c2)CC1,inactive: 0.83%,
O=C(O)COc1ccccc1-c1ccccc1,inconclusive: 13.6%,

# Source: PubChem BioAssay AID493014 (National Center for Advancing Translational Sciences (NCATS), 2011)
